58 molecules from PubChem BioAssay AID2685 (National Center for Advancing Translational Sciences (NCATS), 2010) can be followed below.

This test can be described thus: qHTS Assay for Lipid Storage Modulators in Drosophila S3 Cells.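 On cell number change: cells counted by Cell Tracker Red CMTPX staining in the red channel.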 To be noted: BODIPY lipid droplet fluorescence, 18-24 h; for cell number change: measured here: cell count max response, cells fed with added oleic acid. Summed up: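 Drosophila S3 cells got compounds at several concentrations plus oleic acid (400 uM solution). Laser-scanning cytometry with 488 nm excitation read lipid droplets at 500-530 nm and cells at 575-640 nm. Percent activity was relative to 20 uM Triacsin C.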

Setting [1] is: measured here: cell number channel AC50, cells fed with added oleic acid.
[2] abbreviates: measured here: lipid fluorescence (Fed channel) AC50, cells fed with added oleic acid.

Structures are written as SMILES. This is one part of the list. The main result of the screen is listed elsewhere. These columns were measured beside it and carry no call. Compounds called inactive in the main read-out are mostly missing here. Words in brackets tell the shape of the fitted curve; partial curves, single points and poor fits give uncertain potencies.

By AC50 is commonly meant the concentration giving half of the maximal activity seen. The low end stands for greater potency, the high end for weaker potency. Turning to `O=C(OCc1cccc([N+](=O)[O-])c1)c1ccc2ccccc2n1`, the cell number change worked out at 7.46%. Moreover, under setting [1], the AC50 is 5.17 µM [falling, single point]. Under setting [2], the concentration at half-maximal activity (AC50) was 0.326 µM [falling, full curve, poor fit].

Regarding `Cc1ccc(-n2c(O)c(/C=N/NC(=O)C3COc4ccccc4O3)c3ccccc3c2=O)cc1` (configuration not stated), the cell number change was -3.43%.

Turning to `CCc1nnc(NC(=O)c2ccc(Br)c(S(=O)(=O)N3CCOCC3)c2)s1`, the cell number change is -15.3%. Also, under setting [2], the concentration at half-maximal activity (AC50) was 29.1 µM [rising, partial curve].

As for `O=C(Nc1cc(Br)ccc1O)c1cc(-c2ccco2)on1`, the cell number change was found to be 39.2%. Under setting [1], the half-maximal activity concentration (AC50) was 29.1 µM [rising, partial curve, poor fit]. The concentration at half-maximal activity (AC50) under setting [2] was 16.4 µM [rising, partial curve, poor fit].

Regarding `CO/N=C/CC(=O)c1ccc(OC)cc1`, the cell number change was determined as 9.74%. Also, the AC50 under setting [2] was 4.11 µM [falling, single point].

Take `Cc1cc(C)c(C(=O)NC2CC(C)(C)Cc3c2cnn3-c2cccc(F)c2)[nH]1` (configuration not stated): the cell number change was -30.9%. Also, the AC50 under setting [1] was 20.6 µM [falling, single point].

With `COC(=O)[C@H](CCSC)NC(=O)Nc1ccc(C)c(C)c1`, under setting [2], the AC50 is 0.116 µM [falling, single point].

In the case of `CN1CC2([N+](=O)[O-])CC=C(OCCO)C([N+](=O)[O-])(C1)C2` (configuration not stated), the cell number change was determined as 2.51%. In addition, the concentration at half-maximal activity (AC50) under setting [2] is 7.31 µM [falling, partial curve, poor fit].

Regarding `Cc1cccc(NC(=S)NNC(=S)NCc2ccccc2)c1`, the cell number change is 97.9%. Also, the AC50 under setting [1] was 29.1 µM [rising, single point].

Take `Cc1cccc(-n2ccc(=O)c(C(=O)Nc3ccc(S(=O)(=O)Nc4onc(C)c4C)cc3)n2)c1`: the cell number change turned out to be 8.58%. Further, the AC50 under setting [2] was 29.1 µM [rising, single point].

For the molecule `CN1/C(=C/C(=O)c2cccs2)Sc2ccccc21`, the cell number change is 113%. The AC50 under setting [1] is 10.3 µM [rising, partial curve]. Moreover, the half-maximal activity concentration (AC50) under setting [2] was 11.6 µM [rising, partial curve].

Consider `O=C(O)C1CCN(S(=O)(=O)N2CCOCC2)CC1`, for which the cell number change is -1.63%. Under setting [2], the half-maximal activity concentration (AC50) was 0.103 µM [falling, full curve, poor fit].

For `Cc1cccc(NC(=O)c2cc(=O)n(Cc3ccccc3)c(=O)[nH]2)c1`, the cell number change was -29.6%. For the same molecule, the concentration at half-maximal activity (AC50) under setting [2] is 16.4 µM [falling, single point].

`CCN(CC)CCN1C(=O)c2ccccc2NC1c1ccc(F)cc1` (configuration not stated): the cell number change is -19.2%. Further, the AC50 under setting [2] is 7.31 µM [rising, single point].

`Cc1ccc(OCCN(C)C(=O)c2cc(COc3ccc(F)cc3F)on2)cc1`: the cell number change was -16.6%.

As for `COc1cccc(-c2cc(C(=O)N3CC4(C)CC3CC(C)(C)C4)no2)c1` (configuration not stated), the cell number change was -38%. Moreover, under setting [1], the half-maximal activity concentration (AC50) was 29.1 µM [falling, single point]. Also, under setting [2], the AC50 is 29.1 µM [falling, single point].

As for `Cc1ccc(-c2cc(C(=O)NCC3CCCO3)no2)cc1` (configuration not stated), the cell number change was 13%. In addition, the AC50 under setting [2] is 7.31 µM [rising, partial curve].

As to `CCOC(=O)c1c(C)[nH]c(C)c1S(=O)(=O)NCCN1CCN(c2cc(Cl)ccc2C)CC1`, the cell number change was -14.1%. In addition, under setting [2], the concentration at half-maximal activity (AC50) was 29.1 µM [falling, single point].

Take `COc1ccc(NC(=O)CN2CCN(S(=O)(=O)N(C)C)CC2)cc1`: the cell number change came to 24.6%. In addition, the AC50 under setting [1] is 0.651 µM [rising, full curve, poor fit].

Take `Cn1cccc1Cc1nnc(SCC(=O)N2CCCC2)n1CCc1ccccc1`: the cell number change stood at 51%. Also, the half-maximal activity concentration (AC50) under setting [1] is 13 µM [rising, single point].

For `Cc1ccc(-n2ccnc(SCC(=O)NC3CCCC3)c2=O)cc1F`, the cell number change is -20.3%. For the same molecule, the half-maximal activity concentration (AC50) under setting [2] is 2.31 µM [falling, partial curve, poor fit].

For the molecule `COc1ccc(NC(=O)C2C3CCC(O3)C2C(=O)O)cc1OC` (configuration not stated), the cell number change came to 0.549%. Moreover, the AC50 under setting [2] was 6.51 µM [falling, single point].

Turning to `Cc1ccc([N+](=O)[O-])cc1S(=O)(=O)Nc1cccc(-c2ccc(N3CCOCC3)nn2)c1`, the cell number change was found to be 16.2%. In addition, the AC50 under setting [1] is 1.84 µM [rising, partial curve, poor fit].

Consider `COc1ccc(CN(CCC(c2ccc(F)cc2)C2CCOC(C)(C)C2)C(=O)c2ccco2)cc1` (configuration not stated), for which the cell number change was 38.5%. In addition, the concentration at half-maximal activity (AC50) under setting [1] was 2.31 µM [rising, partial curve]. For the same molecule, the concentration at half-maximal activity (AC50) under setting [2] was 2.91 µM [rising, single point].

Consider `CCOC(=O)c1sc(Nc2nc3c(OC)cccc3s2)cc1C`, for which the cell number change was -48.1%. The concentration at half-maximal activity (AC50) under setting [1] was 29.1 µM [falling, single point].

As to `Cc1cc(C)cc(OCC(=O)Nc2ccccc2C(=O)NCc2ccco2)c1`, the cell number change was -43.7%. The concentration at half-maximal activity (AC50) under setting [1] was 16.4 µM [falling, partial curve].

In the case of `Cc1ccc(-c2noc(CCC(=O)Nc3ccccc3C)n2)cc1`, the cell number change is -28.3%. Besides, the half-maximal activity concentration (AC50) under setting [2] was 3.66 µM [rising, partial curve, poor fit].

For `CCOc1cccc(-c2nnc3sc(C4CCCCC4)nn23)c1`, the cell number change was -29.7%. Besides, under setting [2], the half-maximal activity concentration (AC50) is 29.1 µM [rising, single point].

Consider `COc1ccc2[nH]c3c(NCc4ccco4)ncnc3c2c1`, for which the cell number change was 12.3%. Moreover, the half-maximal activity concentration (AC50) under setting [1] was 0.82 µM [rising, full curve, poor fit]. Further, the AC50 under setting [2] was 29.1 µM [rising, single point].

For the molecule `CC(C)(O)C#Cc1ccc(C(=O)N2CCC(CCC(=O)NC3CC3)CC2)cc1`, the cell number change came to 9.83%.

As for `COc1cc(SC)ccc1C(=O)N(Cc1ccccc1)c1ccccn1`, the cell number change was -20.8%. Further, the concentration at half-maximal activity (AC50) under setting [2] was 29.1 µM [falling, single point].

On to `COc1ccc(S(=O)(=O)NNC(=O)C2Cc3c(ccc4ccccc34)O2)cc1` (configuration not stated), for which the cell number change is -7.76%.

As to `Cc1ccc2nnn(Cc3cccc(C(C)(C)C)c3O)c2c1`, the cell number change is -57.8%. The AC50 under setting [1] was 18.4 µM [falling, single point]. Further, the AC50 under setting [2] was 10.3 µM [falling, partial curve, poor fit].

On to `Cc1cc(N2CCN(C(=O)c3ccco3)CC2)n2ncc(-c3ccccc3)c2n1`, for which the cell number change was -6.37%. Under setting [2], the half-maximal activity concentration (AC50) was 0.103 µM [rising, full curve, poor fit].

Turning to `COc1ccc(-c2cc(C(F)(F)F)nc(S(=O)(=O)CCC(=O)N3CCOCC3)n2)cc1`, the cell number change was -46.3%. For the same molecule, under setting [1], the AC50 was 0.164 µM [falling, full curve, poor fit]. In addition, under setting [2], the half-maximal activity concentration (AC50) was 29.1 µM [falling, single point].

As to `COc1cccc(CN2CCNC(=O)C2CC(=O)NC2CCCC2)c1OC` (configuration not stated), the concentration at half-maximal activity (AC50) under setting [1] was 0.13 µM [falling, full curve, poor fit].

Consider `CN(Cc1ccccc1)c1oc(-c2ccco2)nc1C#N`, for which the cell number change is 10.8%. For the same molecule, the AC50 under setting [2] was 3.66 µM [rising, single point].

As for `CCOC(=O)C1CCCN(c2cc(NCCCO)c([N+](=O)[O-])c3nonc23)C1` (configuration not stated), the cell number change came to 9.21%.

As for `CCOC(=O)C1(Cc2ccccc2C(F)(F)F)CCN(Cc2ccon2)CC1`, the cell number change was -6.78%.

Consider `CCOc1ccc(C(=O)C(C)=O)c(OCC)c1`, for which the cell number change was 1.66%. The AC50 under setting [2] was 25.9 µM [rising, single point].

With `COc1ccc(CC(=O)OCC(=O)N(CC(C)C)c2c(N)n(Cc3ccccc3)c(=O)[nH]c2=O)cc1`, the cell number change was found to be 1.27%. Further, the AC50 under setting [2] is 20.6 µM [falling, single point].

In the case of `COc1ccc(NC(=O)COC(=O)Cc2c[nH]c3ccccc23)cc1OC`, the AC50 under setting [1] was 0.651 µM [rising, partial curve] and the AC50 under setting [2] is 0.291 µM [rising, partial curve].

Consider `CCOC(=O)c1cnc2c(-c3ccc(Cl)cc3)c(C)nn2c1N`, for which the cell number change worked out at 2.05%. The AC50 under setting [1] was 6.51 µM [rising, single point].

As to `CCN1CCN(Cc2nc3ccc([N+](=O)[O-])cc3c(=O)n2-c2ccc(OC)cc2OC)CC1`, the cell number change amounted to 2.2%. Further, the AC50 under setting [2] was 6.51 µM [rising, single point].

As for `Cc1ccc(-c2nc3ccccc3s2)cc1NC(=O)c1cc(-n2cnnc2)ccc1Cl`, the cell number change is -0.828%. Also, the half-maximal activity concentration (AC50) under setting [2] is 0.058 µM [falling, full curve, poor fit].

In the case of `CCOc1ccccc1C(=O)Nc1ccc(C(=O)c2ccccc2)cc1`, the cell number change is -30.5%. Moreover, the concentration at half-maximal activity (AC50) under setting [1] was 5.17 µM [falling, full curve, poor fit]. Also, under setting [2], the AC50 is 6.51 µM [falling, single point].

For the molecule `O=C(CCc1ccccc1Cl)Nc1cccc(S(=O)(=O)N2CCCC2)c1`, the cell number change was 33.3%. In addition, the AC50 under setting [2] was 6.51 µM [falling, partial curve].

Regarding `C=CCn1c(SCC(=O)NCCOC)nc2scc(-c3ccco3)c2c1=O`, the cell number change was determined as 34.4%. In addition, the AC50 under setting [1] was 11.6 µM [rising, partial curve, poor fit].

For `Cc1cc(C)c2c3c(sc2n1)C(=O)N(C)CC(=O)N3`, the cell number change stood at 0.762%. Moreover, the concentration at half-maximal activity (AC50) under setting [1] was 0.116 µM [falling, full curve, poor fit]. Also, under setting [2], the concentration at half-maximal activity (AC50) was 0.082 µM [falling, full curve, poor fit].

`COC(=O)c1nn(-c2ccccc2)c(Sc2ccc(Cl)cc2)c1/C=N/O`: the concentration at half-maximal activity (AC50) under setting [2] is 18.4 µM [rising, single point].

`Cc1cc(C(=O)COc2ccccc2[N+](=O)[O-])c(C)n1C1CC1`: the cell number change was found to be 13.4%. Moreover, the half-maximal activity concentration (AC50) under setting [1] is 6.51 µM [rising, single point].

Turning to `CS(=O)(=O)N1CCN(CC(=O)NC2CCCCC2)CC1`, the cell number change was -28.4%. The half-maximal activity concentration (AC50) under setting [2] was 25.9 µM [falling, single point].

In the case of `CC1CCCCC1NC(=O)COc1ccccc1C#N` (configuration not stated), the cell number change was -14.7%.

For `CC(=O)Nc1ccc(CC(=O)NCCC(c2ccccc2)c2ccccc2)cc1`, the cell number change is -3.75%.

As for `N#Cc1ccc(S(=O)(=O)N2CCN(CC(=O)NCC3(N4CCOCC4)CCCCC3)CC2)cc1`, the cell number change is -3.56%. In addition, under setting [2], the half-maximal activity concentration (AC50) was 0.116 µM [rising, full curve, poor fit].

Consider `COCCOC(=O)C1=C(C)NC(=O)NC1/C=C/c1ccccc1` (configuration not stated), for which the cell number change is -2.7%. Further, the AC50 under setting [1] is 0.411 µM [rising, full curve]. Besides, the half-maximal activity concentration (AC50) under setting [2] was 0.731 µM [rising, full curve].

For the molecule `Cc1ccnc(SCc2cc(=O)c(OC(=O)c3cc([N+](=O)[O-])ccc3Cl)co2)n1`, the cell number change is 45.7%. Further, under setting [1], the AC50 is 16.4 µM [rising, partial curve]. Moreover, the AC50 under setting [2] was 9.2 µM [rising, partial curve].

On to `COc1ccc(Cc2noc(-c3ccc(OC)c(OC)c3)n2)cc1OC`, for which the cell number change is -10.7%. Further, the half-maximal activity concentration (AC50) under setting [2] is 2.31 µM [rising, full curve].
